The test can be described thus: IkB Signaling. Conditions: ABC-DLBCL IkBa-CBG/CBR dual luciferase ratio (green luciferase fused to IkBa over red control in OCI-Ly3 lymphoma cells), 4 h. Put shortly:
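In this assay, an IκBα–CBG68 fusion accumulates when IKK-driven degradation is blocked; native CBR normalizes for cell number. OCI-Ly3 cells were treated 4 h with compound and doxycycline, then green and red light read after Chroma-Glo addition.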

The mark [1] stands for this setting: measured here: control luc red channel unless noted.

Some of the results follow. Shown are side measurements of this screen, not its main read-out; they come without a call. Most of these compounds were active or inconclusive in the main read-out, so they are no random draw. Words in brackets tell the shape of the fitted curve; partial curves, single points and poor fits give uncertain potencies.

The term AC50 denotes the midpoint of the concentration-response curve, whichever way the signal moves.

Turning to `Nc1nc(SCc2ccc(Cl)cc2)ns1`, under setting [1], the AC50 is 0.126 µM [rising, full curve].

As to `CCOc1cc(C2NC(=O)c3c(sc4c3CCN(C)C4)N2)ccc1OC(=O)c1ccc(Br)cc1` (stereo not given), the AC50 under setting [1] is 2.51 µM [rising, full curve, poor fit].

For `COc1ccc(NC(=O)c2ccco2)cc1NC(=O)C(C)(C)Oc1ccc(Cl)cc1`, the AC50 under setting [1] was 12.6 µM [falling, partial curve].

Consider `Cc1cccc(C)c1-n1ncc(C(=O)O)c1C1CCN(C(=O)OC(C)(C)C)CC1`, for which the AC50 under setting [1] was 25.1 µM [falling, partial curve, poor fit].

In the case of `CCOC(=O)Cc1nnc2c(Nc3ccc(C)cc3)nc3nonc3n12`, the AC50 under setting [1] was 25.1 µM [falling, partial curve].

As for `COc1ccc(-c2noc(-c3ccc(N4CCOCC4)c([N+](=O)[O-])c3)n2)cc1`, the AC50 under setting [1] is 12.6 µM [falling, single point].

Consider `CC1=C(C(=O)Nc2ccccc2C)C(c2cccs2)n2nc(SCc3ccccc3)nc2N1` (stereo not given), for which the AC50 under setting [1] is 3.16 µM [falling, full curve].

Consider `CCc1ccc(-n2nc(CO)c(C(=O)NCCOC)n2)cc1`, for which the AC50 under setting [1] is 0.631 µM [rising, full curve].

On to `O=C(O)c1cc(/C=N\O)ccc1OCc1ccccc1`, for which the AC50 under setting [1] was 20 µM [falling, partial curve].

Regarding `CCn1c(COc2ccccc2)nnc1SCC(=O)Nc1ccc2c(c1)OCCO2`, the AC50 under setting [1] is 31.6 µM [falling, partial curve].

With `CC(=O)c1ccc(NC(=O)C2CCN(c3nnc(C)c4c(C)n(-c5ccccc5)nc34)CC2)cc1`, under setting [1], the AC50 is 39.8 µM [rising, single point].

On to `CC#C[C@]1(O)CC[C@H]2[C@@H]3CCC4=CC(=O)CCC4=C3[C@H](c3ccc(N(C)C)cc3)C[C@@]21C`, for which the AC50 under setting [1] was 31.6 µM [falling, partial curve].

As to `COc1ccc(NCc2cccn2-c2nnc(N3CCCCCC3)s2)cc1`, the AC50 under setting [1] is 39.8 µM [falling, single point].

Take `COc1ccc(NC(=O)CSC2=Nc3ccccc3C3=NC(CC(=O)NCCc4ccccc4)C(=O)N23)cc1` (stereo not given): the AC50 under setting [1] was 2 µM [rising, partial curve].

Turning to `COc1cc(OC)c(NC(=O)CCS(=O)(=O)c2ccc3c(c2)oc(=O)n3C)cc1Cl`, the AC50 under setting [1] was 39.8 µM [falling, single point].

In the case of `Cc1ccc(NC(=O)NC2=N/C(=C(/C#N)C(=O)N3CCCC3)c3ccccc32)cc1`, the AC50 under setting [1] was 3.16 µM [falling, full curve].

For the compound `COc1ccccc1NC(=O)Cn1c(CN2CCCCC2)nc2ccccc2c1=O`, the AC50 under setting [1] is 25.1 µM [falling, partial curve].

Consider `CCOC(=O)CCCNC(=O)COC(=O)c1cccc(C)c1O`, for which the AC50 under setting [1] was 7.94 µM [falling, partial curve].

As for `Nc1c(C(=O)c2ccccc2)oc2ccc(Br)cc12`, the AC50 under setting [1] was 2 µM [rising, partial curve] [measured here: IkB-luc green channel].

Regarding `COc1ccc(-c2nnc(NC(=O)c3ccc(S(=O)(=O)N4CCc5ccccc5C4)cc3)o2)cc1`, the AC50 under setting [1] was 25.1 µM [falling, partial curve, poor fit].

`CCOc1ccc(CCNC(=O)c2cc(=O)[nH]c3ccc(S(=O)(=O)N4CCCCC4C)cc23)cc1OCC` (stereo not given): the AC50 under setting [1] is 1 µM [rising, partial curve].

`COCCn1c(Cc2ccccc2)nnc1SCC(=O)NC(C)C`: under setting [1], the AC50 was 10 µM [falling, partial curve].

Consider `Cc1ccc(-c2noc(CCC(=O)N(C)c3ccccc3F)n2)cc1`, for which, under setting [1], the concentration at half-maximal activity (AC50) was 39.8 µM [falling, partial curve].

Turning to `Cc1ccc(CN(C(=O)COc2ccccc2Cl)c2ccccn2)o1`, the AC50 under setting [1] is 5.01 µM [rising, partial curve, poor fit].

`Cc1csc(NC(=O)c2cccc(Cn3nc(C)c(Br)c3C)c2)n1`: the AC50 under setting [1] was 10 µM [falling, partial curve].

In the case of `COc1ccc(Nc2c3c(nc4ccccc24)CCC3)cc1Cl`, under setting [1], the AC50 was 15.8 µM [falling, partial curve].

Consider `Cc1cccc(NC(=O)Cn2c(=O)n(Cc3ccc4c(c3)OCO4)c(=O)c3oc4ccccc4c32)c1C`, for which the AC50 under setting [1] was 25.1 µM [falling, single point].

Consider `COc1ccc2[nH]c(=O)c(CN(CC3CCCO3)C(=O)Nc3ccccc3)cc2c1` (stereo not given), for which the AC50 under setting [1] was 31.6 µM [falling, partial curve].

In the case of `COc1ccc(OC)c(CNC(=O)Nc2cn(CC(C)C)c(=O)c3ccccc23)c1`, under setting [1], the AC50 was 31.6 µM [falling, single point].

Turning to `CC1=C(/C=C/C(C)=C/C=C/C(C)=C\C=O)C(C)(C)CCC1`, the AC50 is, setting by setting: (measured here: IkB-luc green channel) 0.0501 µM [rising, full curve]; (measured here: control luc red channel) 15.8 µM [falling, full curve, poor fit].

On to `COCCSc1nc2c([nH]c3ccccc32)c(=O)n1-c1ccc(OC)c(OC)c1`, for which, under setting [1], the AC50 is 0.794 µM [rising, full curve].

Regarding `CCCCn1c(CNC(=O)C23CC4CC(CC(C4)C2)C3)nnc1SCC(=O)Nc1ccc(C)cc1`, under setting [1], the AC50 is 25.1 µM [falling, partial curve].

Consider `CCOCCCN(Cc1ccco1)S(=O)(=O)c1cc2c(cc1C)NC(=O)CO2`, for which the AC50 under setting [1] is 0.1 µM [falling, partial curve].

Take `COc1ccc(-n2ncc(C(=O)Nc3cccc(C(F)(F)F)c3)c2C2CCN(C(=O)OC(C)(C)C)CC2)cc1`: under setting [1], the AC50 was 31.6 µM [falling, single point].

Consider `Cc1ccc(C2=Nc3ccccc3N(CC(=O)NCc3ccccc3Cl)C(=O)C2)cc1C`, for which the AC50 under setting [1] is 20 µM [falling, single point].

`O=C(Nc1c(C(=O)N2CCN(c3ccccc3)CC2)oc2ccccc12)c1ccco1`: the AC50 under setting [1] is 25.1 µM [falling, single point].

Consider `CC(C)C(=O)NCC(c1ccc2c(c1)OCO2)N1CCN(c2ccccc2)CC1` (stereo not given), for which the AC50 under setting [1] is 1 µM [rising, full curve, poor fit].

`CCn1c(C(=O)N2CCCC(C(=O)N3CCN(c4cc(C)ccc4C)CC3)C2)cc2sccc21` (stereo not given): under setting [1], the AC50 is 25.1 µM [falling, partial curve].

Take `Cc1ccc(CCNC(=O)CCS(=O)(=O)c2cc3c(cc2C)NC(=O)CO3)cc1`: the AC50 under setting [1] was 7.94 µM [falling, full curve].

The values are drawn from PubChem BioAssay AID445 (National Center for Advancing Translational Sciences (NCATS), 2006).
